{"source": "PubChem BioAssay AID504791 – Drosophila RNAi Screening Center – 2011", "screen": "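Genes of the fly required for silencing by miRNA, siRNA or endo-siRNA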 (primary screen)", "system": "Drosophila S2-derived reporter cells", "knock-down reagent": "long dsRNA against Drosophila genes, about 150-250 ng dsRNA per well (siRNA assay); about 80-120 ng (miRNA assay)", "duration": "about 5 days (siRNA assay); about 4 days (miRNA assay)", "treatment": "copper sulfate induction of reporters: 25 µM (siRNA assay); 200 mM stated (miRNA assay), 1-2 days before reading", "read-out": "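Dual luciferase assay: Renilla to firefly signal ratio in each well, scaled to the mean ratio of its plate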", "units": "stable assay Renilla, run 1 in luminescence; stable assay firefly, run 1 in luminescence", "hit rule": "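a well was a first-pass pick when its plate-scaled ratio rose above 1.5 (siRNA assay) or 1.6 (miRNA assay), or dropped below 0.6; a gene counted only if two separate dsRNAs agreed on retest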", "note": "The screen tested about 23,000 reagents; shown is a random part of those with a known target gene and a result. Of all reagents, 199 (0.86%) got an active call. 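Plate-scaled ratios behind the calls are not deposited; printed light signals are raw; many rows marked increased or decreased are still called inactive.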 A plus sign joins genes that one reagent is predicted to hit. No sequences are given here. Not given: the direction of the score."}
The first 2 entries, ahead of the listing:
{"gene": "Plzf", "dsRNA": "DRSC02994", "stable assay Renilla, run 1": 43799, "stable assay firefly, run 1": 4.64e5, "activity call": "inactive"}
{"gene": "SkpB", "dsRNA": "DRSC07683", "stable assay Renilla, run 1": 5924, "stable assay firefly, run 1": 5.16e5, "activity call": "inactive"}

Main list, repeating the preview:
{"gene": "Plzf", "dsRNA": "DRSC02994", "stable assay Renilla, run 1": 43799, "stable assay firefly, run 1": 4.64e5, "activity call": "inactive"}
{"gene": "SkpB", "dsRNA": "DRSC07683", "stable assay Renilla, run 1": 5924, "stable assay firefly, run 1": 5.16e5, "activity call": "inactive"}
{"gene": "SkpB", "dsRNA": "DRSC25160", "miRNA reporter change": "reporter ratio lowered past the hit cutoff", "activity call": "inactive"}
{"gene": "robl37BC", "dsRNA": "DRSC02472", "stable assay Renilla, run 1": 6855, "stable assay firefly, run 1": 4.48e5, "activity call": "inactive"}
{"gene": "CG3491", "dsRNA": "DRSC01934", "stable assay Renilla, run 1": 7646, "stable assay firefly, run 1": 3.77e5, "activity call": "inactive"}
{"gene": "Cyp304a1", "dsRNA": "DRSC16623", "stable assay Renilla, run 1": 7307, "stable assay firefly, run 1": 4.99e5, "activity call": "inactive"}
{"gene": "Sply", "dsRNA": "DRSC07299", "stable siRNA reporter change": "reporter ratio raised past the hit cutoff", "stable assay Renilla, run 1": 4439, "stable assay firefly, run 1": 1.56e5, "activity call": "inactive"}
{"gene": "CG33060", "dsRNA": "DRSC09939", "stable assay Renilla, run 1": 8339, "stable assay firefly, run 1": 3.91e5, "activity call": "inactive"}
{"gene": "kmg", "dsRNA": "DRSC02829", "stable assay Renilla, run 1": 7042, "stable assay firefly, run 1": 3.45e5, "activity call": "inactive"}
{"gene": "CG17982", "dsRNA": "DRSC18143", "stable assay Renilla, run 1": 6207, "stable assay firefly, run 1": 3.55e5, "activity call": "inactive"}
{"gene": "ACOX1", "dsRNA": "DRSC05941", "stable assay Renilla, run 1": 11821, "stable assay firefly, run 1": 3.79e5, "activity call": "inactive"}
{"gene": "wbl", "dsRNA": "DRSC07718", "stable assay Renilla, run 1": 5871, "stable assay firefly, run 1": 2.89e5, "activity call": "inactive"}
{"gene": "CG30031 + deltaTry + CG30025 + 1 more", "dsRNA": "DRSC21262", "stable assay Renilla, run 1": 4859, "stable assay firefly, run 1": 3.20e5, "activity call": "inactive"}
{"gene": "CG4250", "dsRNA": "DRSC04455", "stable assay Renilla, run 1": 8609, "stable assay firefly, run 1": 4.96e5, "activity call": "inactive"}
{"gene": "ND-75", "dsRNA": "DRSC18686", "stable assay Renilla, run 1": 6175, "stable assay firefly, run 1": 3.55e5, "activity call": "inactive"}
{"gene": "CG32633", "dsRNA": "DRSC18987", "stable assay Renilla, run 1": 4502, "stable assay firefly, run 1": 4.05e5, "activity call": "inactive"}
{"gene": "CG11581", "dsRNA": "DRSC19407", "stable assay Renilla, run 1": 5923, "stable assay firefly, run 1": 5.19e5, "activity call": "inactive"}
{"gene": "tst", "dsRNA": "DRSC14212", "stable assay Renilla, run 1": 8690, "stable assay firefly, run 1": 3.74e5, "activity call": "inactive"}
{"gene": "List", "dsRNA": "DRSC06520", "stable assay Renilla, run 1": 6388, "stable assay firefly, run 1": 2.38e5, "activity call": "inactive"}
{"gene": "CG10444", "dsRNA": "DRSC05990", "stable assay Renilla, run 1": 8962, "stable assay firefly, run 1": 3.77e5, "activity call": "inactive"}
{"gene": "CG10598", "dsRNA": "DRSC19358", "stable assay Renilla, run 1": 6027, "stable assay firefly, run 1": 4.84e5, "activity call": "inactive"}
{"gene": "CG30323", "dsRNA": "DRSC07656", "stable assay Renilla, run 1": 5023, "stable assay firefly, run 1": 3.39e5, "activity call": "inactive"}
{"gene": "CG13323", "dsRNA": "DRSC06360", "stable assay Renilla, run 1": 5806, "stable assay firefly, run 1": 3.93e5, "activity call": "inactive"}
{"gene": "ChLD3", "dsRNA": "DRSC02640", "stable assay Renilla, run 1": 7060, "stable assay firefly, run 1": 4.06e5, "activity call": "inactive"}
{"gene": "CG16952", "dsRNA": "DRSC19759", "stable assay Renilla, run 1": 5858, "stable assay firefly, run 1": 3.43e5, "activity call": "inactive"}
{"gene": "CG14662", "dsRNA": "DRSC12248", "stable assay Renilla, run 1": 8030, "stable assay firefly, run 1": 5.51e5, "activity call": "inactive"}
{"gene": "Trissin", "dsRNA": "DRSC14994", "stable assay Renilla, run 1": 7765, "stable assay firefly, run 1": 5.45e5, "activity call": "inactive"}
{"gene": "CG4360", "dsRNA": "DRSC15566", "stable assay Renilla, run 1": 6731, "stable assay firefly, run 1": 3.62e5, "activity call": "inactive"}
